Substitutions are numbered along the chain they refer to. For at least one entry, the source does not settle the construct or the ends of the probe. Where a protein sequence is shown, tags need not be part of it.

The text below walks through data of publication PMC7261158.

For data set [1], the target named is T1, DnmA Y465A (Bacillus subtilis PY79) (UniProt O31504).
T1 sequence (looked up, limits assumed): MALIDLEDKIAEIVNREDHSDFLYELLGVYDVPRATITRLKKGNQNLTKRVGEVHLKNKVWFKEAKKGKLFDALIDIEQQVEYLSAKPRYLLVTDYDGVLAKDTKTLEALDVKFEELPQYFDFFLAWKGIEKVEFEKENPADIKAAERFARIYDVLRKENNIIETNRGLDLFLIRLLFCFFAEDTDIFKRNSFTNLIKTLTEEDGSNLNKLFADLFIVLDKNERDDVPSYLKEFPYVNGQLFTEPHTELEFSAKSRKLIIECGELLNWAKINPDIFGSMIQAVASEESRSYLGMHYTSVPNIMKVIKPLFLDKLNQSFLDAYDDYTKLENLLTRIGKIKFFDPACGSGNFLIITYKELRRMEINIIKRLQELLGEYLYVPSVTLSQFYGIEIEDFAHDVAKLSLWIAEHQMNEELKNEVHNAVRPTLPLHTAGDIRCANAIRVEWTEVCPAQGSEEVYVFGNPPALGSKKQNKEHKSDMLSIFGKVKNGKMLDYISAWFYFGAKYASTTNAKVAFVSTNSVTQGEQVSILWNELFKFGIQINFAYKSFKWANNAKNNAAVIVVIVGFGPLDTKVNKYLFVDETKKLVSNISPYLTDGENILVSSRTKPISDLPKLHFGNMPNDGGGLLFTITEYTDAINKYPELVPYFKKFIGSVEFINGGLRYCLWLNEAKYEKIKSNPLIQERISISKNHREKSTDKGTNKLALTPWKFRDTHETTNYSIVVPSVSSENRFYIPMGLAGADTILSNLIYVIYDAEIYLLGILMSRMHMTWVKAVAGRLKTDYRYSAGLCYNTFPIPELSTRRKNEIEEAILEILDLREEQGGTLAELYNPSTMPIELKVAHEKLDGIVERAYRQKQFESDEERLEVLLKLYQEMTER
Nature of the data set: EMSA. To be noted: ScoC EMSA (1x from 5x): 50 mM Tris-HCl pH 8, 1 mM EDTA, 30 mM KCl, 2 mM MgCl2, 1 mM DTT, 0.2% Tween 20, 25 ug/ml salmon sperm DNA, 37 C 15 min; recombinant protein; label: 5' IRD700 on strand 1. For orientation: In EMSA bound probe runs differently from free probe, usually more slowly.

Data set [2] concerns the target T2, DnmA (YeeA, M.BsuPY79I) (Bacillus subtilis PY79) (UniProt O31504).
T2 sequence (looked up, limits assumed): T1 sequence (looked up, limits assumed) with A465Y
Kind of data set: EMSA. To be noted: ScoC EMSA (1x from 5x): 50 mM Tris-HCl pH 8, 1 mM EDTA, 30 mM KCl, 2 mM MgCl2, 1 mM DTT, 0.2% Tween 20, 25 ug/ml salmon sperm DNA, 37 C 15 min; recombinant protein; label: 5' IRD700 on strand 1.

“GTGCAGCGTATCCGGACAATGACGAGACGGAAACAGAGCTGCTGCTGATC (double strand) [DnmA target (GACGAG), oAS9]”: the binding result in data set [1] and in data set [2] was “binds” in each case.

As for “ATATAAACATACATACATACATTATTATATAAACATACATACATACATTA (double strand) [DnmA degenerate sequence (no target), oAS11]”, the binding result in data set [2] is reported as “binds”.

Turning to “GTGCAGCGTATCCGGACAATGACGTGACGGAAACAGAGCTGCTGCTGATC (double strand) [DnmA non-target (GACGTG), oAS10]”, in data set [2], the binding result is reported as “binds”.
